Experimental data: PubChem BioAssay AID1259288 (Sanger Institute, 2017)

Screen: 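Verify that silencing candidate genes makes colorectal cancer cells more drug sensitive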 (follow-up of hits with single siRNAs)
Cell system: HT29 human colorectal cancer cells
Reagent: single siRNA against human genes
Treatment: anchor drugs BYL719 (1 µM), cetuximab (5 µg/ml) or trametinib (10 nM), or DMSO vehicle; each drug dosed to cause only modest loss of viability on its own
Detection: 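Mean viability across replicates relative to non-targeting pool 2, and a synergy score setting the joint siRNA-plus-drug effect against each agent's effect alone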
Scale: synergy score with BYL719 and synergy score with trametinib and synergy score with cetuximab: higher = stronger combined killing than expected from each alone; viability with siRNA alone (DMSO): higher = more viable cells
Active means: 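Hit when synergy for any of BYL719, cetuximab and trametinib exceeds 0.10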
Here is a random part of 160 deposited reagents. In the full data, 7 (4.4%) were called active. 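Active calls arise only from BYL719 or trametinib; no cetuximab synergy went beyond 0.10; drug doses chosen to have mild effect alone.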 Unmarked entries are inactive. The numbers tell different reagents against one gene apart. No viability above 1 is reported: the scale is capped. No sequences are given here. The record does not give: the amount of reagent, the time to read-out.

| target | reagent | synergy score with BYL719 | synergy score with trametinib | synergy score with cetuximab | viability with siRNA alone (DMSO) (fraction of control) |
| --- | --- | --- | --- | --- | --- |
| IRAK3 (interleukin 1 receptor associated kinase 3) | 1 | -0.146 | 0.00106 | -0.132 | 0.778 |
| IRAK3 (interleukin 1 receptor associated kinase 3) | 2 | -0.0877 | -0.0187 | -0.0511 | 0.915 |
| IRAK3 (interleukin 1 receptor associated kinase 3) | 3 | -0.0597 | 0.0101 | -0.0985 | 0.889 |
| IRAK3 (interleukin 1 receptor associated kinase 3) | 4 | -0.179 | -0.0957 | -0.103 | 0.897 |
| CDKN2D (cyclin dependent kinase inhibitor 2D) | 1 | -0.29 | -0.0297 | -0.16 | 0.692 |
| CDKN2D (cyclin dependent kinase inhibitor 2D) | 2 | -0.293 | -0.0383 | -0.222 | 0.778 |
| CDKN2D (cyclin dependent kinase inhibitor 2D) | 3 | -0.228 | -0.0616 | -0.123 | 0.877 |
| CDKN2D (cyclin dependent kinase inhibitor 2D) | 4 | -0.124 | -0.0101 | -0.185 | 0.745 |
| CHD4 (chromodomain helicase DNA binding protein 4) | 1 | -0.0702 | 0.0141 | -0.121 | 0.42 |
| CHD4 (chromodomain helicase DNA binding protein 4) | 2 | -0.0285 | 0.0101 | -0.00558 | 0.464 |
| CHD4 (chromodomain helicase DNA binding protein 4) | 3 | -0.0424 | -0.0316 | -0.018 | 0.599 |
| CHD4 (chromodomain helicase DNA binding protein 4) | 4 | -0.0848 | -0.0604 | -0.212 | 0.687 |
| MARK3 (microtubule affinity regulating kinase 3) | 1 | -0.00167 | -0.0221 | -0.0863 | 0.914 |
| MARK3 (microtubule affinity regulating kinase 3) | 2 | -0.231 | -0.0655 | -0.05 | 0.95 |
| MARK3 (microtubule affinity regulating kinase 3) | 3 | -0.0921 | -0.116 | -0.00253 | 0.932 |
| MARK3 (microtubule affinity regulating kinase 3) | 4 | -0.0331 | 0.0443 | -0.0961 | 0.71 |
| CSNK2A2 (casein kinase 2 alpha 2) | 1 | -0.148 | -0.00572 | 0 | 1 |
| CSNK2A2 (casein kinase 2 alpha 2) | 2 | -0.183 | -0.15 | -0.125 | 0.441 |
| CSNK2A2 (casein kinase 2 alpha 2) | 3 | -0.118 | -0.0921 | -0.302 | 0.6 |
| CSNK2A2 (casein kinase 2 alpha 2) | 4 | -0.125 | 0.0256 | -0.162 | 0.539 |
| PRAG1 (PEAK1 related, kinase-activating pseudokinase 1) | 1 | -0.0342 | -0.0211 | -0.15 | 0.753 |
| PRAG1 (PEAK1 related, kinase-activating pseudokinase 1) | 2 | 0.0355 | 0.0707 | -0.169 | 0.706 |
| PRAG1 (PEAK1 related, kinase-activating pseudokinase 1) | 3 | 0.0136 | -0.063 | -0.0404 | 0.91 |
| PRAG1 (PEAK1 related, kinase-activating pseudokinase 1) | 4 | 0.0302 | -0.0457 | -0.0267 | 0.877 |
| CDK6 (cyclin dependent kinase 6) | 1 | 0.0769 | 0.0355 | -0.123 | 0.834 |
| CDK6 (cyclin dependent kinase 6) | 2 | -0.0453 | 0.0259 | -0.305 | 0.69 |
| CDK6 (cyclin dependent kinase 6) | 3 | -0.171 | 0.0165 | -0.0677 | 0.874 |
| CDK6 (cyclin dependent kinase 6) | 4 | -0.071 | 0.0522 | 0 | 1 |

Reprinted from the listing (11 entries):
| target | reagent | synergy score with BYL719 | synergy score with trametinib | synergy score with cetuximab | viability with siRNA alone (DMSO) (fraction of control) |
| --- | --- | --- | --- | --- | --- |
| IRAK3 (interleukin 1 receptor associated kinase 3) | 1 | -0.146 | 0.00106 | -0.132 | 0.778 |
| IRAK3 (interleukin 1 receptor associated kinase 3) | 2 | -0.0877 | -0.0187 | -0.0511 | 0.915 |
| IRAK3 (interleukin 1 receptor associated kinase 3) | 3 | -0.0597 | 0.0101 | -0.0985 | 0.889 |
| IRAK3 (interleukin 1 receptor associated kinase 3) | 4 | -0.179 | -0.0957 | -0.103 | 0.897 |
| CDKN2D (cyclin dependent kinase inhibitor 2D) | 1 | -0.29 | -0.0297 | -0.16 | 0.692 |
| CDKN2D (cyclin dependent kinase inhibitor 2D) | 2 | -0.293 | -0.0383 | -0.222 | 0.778 |
| CDKN2D (cyclin dependent kinase inhibitor 2D) | 3 | -0.228 | -0.0616 | -0.123 | 0.877 |
| CDKN2D (cyclin dependent kinase inhibitor 2D) | 4 | -0.124 | -0.0101 | -0.185 | 0.745 |
| CHD4 (chromodomain helicase DNA binding protein 4) | 1 | -0.0702 | 0.0141 | -0.121 | 0.42 |
| CHD4 (chromodomain helicase DNA binding protein 4) | 2 | -0.0285 | 0.0101 | -0.00558 | 0.464 |
| CHD4 (chromodomain helicase DNA binding protein 4) | 3 | -0.0424 | -0.0316 | -0.018 | 0.599 |

Additional results:
| target | reagent | synergy score with BYL719 | synergy score with trametinib | synergy score with cetuximab | viability with siRNA alone (DMSO) (fraction of control) |
| --- | --- | --- | --- | --- | --- |
| KCNH8 (potassium voltage-gated channel subfamily H member 8) | 1 | -0.104 | -0.0202 | -0.217 | 0.672 |
| KCNH8 (potassium voltage-gated channel subfamily H member 8) | 2 | -0.122 | 0.0811 | -0.099 | 0.733 |
| KCNH8 (potassium voltage-gated channel subfamily H member 8) | 3 | -0.239 | -0.05 | -0.105 | 0.884 |
| KCNH8 (potassium voltage-gated channel subfamily H member 8) | 4 | -0.0694 | -0.0284 | -0.127 | 0.749 |
| HUNK (hormonally up-regulated Neu-associated kinase) | 1 | 0.0562 | 0.0395 | 0.0326 | 0.84 |
| HUNK (hormonally up-regulated Neu-associated kinase) | 2 | -0.0671 | -0.0517 | -0.179 | 0.677 |
| HUNK (hormonally up-regulated Neu-associated kinase) | 3 | -0.0499 | 0.047 | -0.152 | 0.848 |
| HUNK (hormonally up-regulated Neu-associated kinase) | 4 | 0.0278 | 0.029 | -0.117 | 0.849 |
| PIM1 (Pim-1 proto-oncogene, serine/threonine kinase) | 1 | 0.0405 | 0.0744 | -0.141 | 0.795 |
| PIM1 (Pim-1 proto-oncogene, serine/threonine kinase) | 2 | -0.0106 | 0.00741 | -0.0365 | 0.963 |
| PIM1 (Pim-1 proto-oncogene, serine/threonine kinase) | 3 | -0.127 | -0.054 | -0.0525 | 0.948 |
| PIM1 (Pim-1 proto-oncogene, serine/threonine kinase) | 4 | 0.0167 | 0.0239 | 0.0492 | 0.85 |
| IKBKB (inhibitor of nuclear factor kappa B kinase subunit beta) | 1 | -0.174 | -0.145 | 0.00929 | 0.523 |
| IKBKB (inhibitor of nuclear factor kappa B kinase subunit beta) | 2 | -0.00382 | 0.00351 | 0.0219 | 0.85 |
| IKBKB (inhibitor of nuclear factor kappa B kinase subunit beta) | 3 | 0.0134 | 0.0195 | -0.0038 | 0.953 |
| IKBKB (inhibitor of nuclear factor kappa B kinase subunit beta) | 4 | -0.0301 (active) | 0.128 | -0.0631 | 0.93 |
| NR2F2 (nuclear receptor subfamily 2 group F member 2) | 1 | -0.189 | -0.042 | -0.214 | 0.714 |
| NR2F2 (nuclear receptor subfamily 2 group F member 2) | 2 | -0.223 | -0.0522 | -0.184 | 0.67 |
| NR2F2 (nuclear receptor subfamily 2 group F member 2) | 3 | -0.188 | -0.0801 | 0.0469 | 1 |
| NR2F2 (nuclear receptor subfamily 2 group F member 2) | 4 | -0.0519 | -0.0275 | -0.0365 | 0.781 |
| PFKFB3 (6-phosphofructo-2-kinase/fructose-2,6-biphosphatase 3) | 1 | -0.00636 | -0.0214 | -0.0388 | 0.85 |
| PFKFB3 (6-phosphofructo-2-kinase/fructose-2,6-biphosphatase 3) | 2 | -0.0436 | 0.0577 | -0.122 | 0.698 |
| PFKFB3 (6-phosphofructo-2-kinase/fructose-2,6-biphosphatase 3) | 3 | -0.0867 | -0.000402 | -0.0921 | 0.908 |
| PFKFB3 (6-phosphofructo-2-kinase/fructose-2,6-biphosphatase 3) | 4 | -0.097 | 0.0323 | -0.15 | 0.85 |
| MAPKAPK2 (MAPK activated protein kinase 2) | 1 | 0.185 (active) | -0.000595 | 0.0467 | 1 |
| MAPKAPK2 (MAPK activated protein kinase 2) | 2 | 0.0907 | -0.137 | -0.0468 | 0.873 |
| MAPKAPK2 (MAPK activated protein kinase 2) | 3 | -0.0186 | -0.0397 | 0.097 | 1 |
| MAPKAPK2 (MAPK activated protein kinase 2) | 4 | -0.0363 | -0.0321 | -0.0704 | 0.93 |
| SYK (spleen associated tyrosine kinase) | 1 | -0.0415 | -0.0231 | -0.162 | 0.654 |
| SYK (spleen associated tyrosine kinase) | 2 | -0.119 | 0.0848 | -0.268 | 0.655 |
| SYK (spleen associated tyrosine kinase) | 3 | -0.207 | -0.0153 | -0.318 | 0.403 |
| SYK (spleen associated tyrosine kinase) | 4 | -0.21 | -0.0368 | -0.165 | 0.835 |
| MAPK4 (mitogen-activated protein kinase 4) | 1 | -0.0649 | -0.122 | -0.121 | 0.822 |
| MAPK4 (mitogen-activated protein kinase 4) | 2 | -0.0776 | -0.0223 | -0.0839 | 0.689 |
| MAPK4 (mitogen-activated protein kinase 4) | 3 | -0.000686 | 0.0546 | -0.00483 | 0.945 |
| MAPK4 (mitogen-activated protein kinase 4) | 4 | -0.0334 | -0.0334 | 0.0665 | 0.748 |
| NLK (nemo like kinase) | 1 | -0.207 | -0.105 | -0.209 | 0.756 |
| NLK (nemo like kinase) | 2 | -0.0123 | 0.0604 | -0.117 | 0.883 |
| NLK (nemo like kinase) | 3 | -0.187 | -0.0109 | -0.0949 | 0.905 |
| NLK (nemo like kinase) | 4 | -0.231 | -0.0429 | -0.0662 | 0.934 |
| AK2 (adenylate kinase 2) | 1 | -0.172 | -0.111 | -0.243 | 0.605 |
| AK2 (adenylate kinase 2) | 2 | -0.173 | 0.023 | -0.155 | 0.814 |
| AK2 (adenylate kinase 2) | 3 | -0.249 | -0.00361 | -0.0599 | 0.94 |
| AK2 (adenylate kinase 2) | 4 | -0.0883 (active) | 0.143 | -0.116 | 0.816 |
| CRIM1 (cysteine rich transmembrane BMP regulator 1) | 1 | 0.0292 | 0.0408 | -0.0519 | 0.864 |
| CRIM1 (cysteine rich transmembrane BMP regulator 1) | 2 | 0.0812 | 0.00505 | -0.045 | 0.799 |
| CRIM1 (cysteine rich transmembrane BMP regulator 1) | 3 | 0.14 (active) | 0.0543 | -0.0403 | 0.916 |
| CRIM1 (cysteine rich transmembrane BMP regulator 1) | 4 | -0.00513 | 0.0551 | 0 | 1 |
